Results on 1 substance are retold here after patent publication US20020141999A1.

By UniProt entry, the sequences of proteins in these tests, tags left out. Where a name states a change or a piece, a line headed by the entry shows the natural chain unless it says otherwise.
UniProt P09564: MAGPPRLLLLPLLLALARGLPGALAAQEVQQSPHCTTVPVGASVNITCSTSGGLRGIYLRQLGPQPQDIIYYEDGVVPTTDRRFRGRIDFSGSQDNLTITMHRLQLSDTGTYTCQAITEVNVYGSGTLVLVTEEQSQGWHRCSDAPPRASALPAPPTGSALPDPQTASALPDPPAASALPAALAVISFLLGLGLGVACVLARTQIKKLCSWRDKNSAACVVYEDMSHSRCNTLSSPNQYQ

In assay [1] the target is T1, human K12, full length, on transfected cells (human) (UniProt Q8WVN6).
T1 sequence: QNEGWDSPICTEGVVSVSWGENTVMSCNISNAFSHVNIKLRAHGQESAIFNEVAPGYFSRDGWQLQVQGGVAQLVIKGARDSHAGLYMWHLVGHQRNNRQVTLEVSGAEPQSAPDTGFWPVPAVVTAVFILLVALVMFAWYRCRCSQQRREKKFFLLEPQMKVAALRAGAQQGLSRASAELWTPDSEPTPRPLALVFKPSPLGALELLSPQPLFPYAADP
Put plainly: Fc fusion binding to transfected cells.

Assay [2] has as its target T1, human K12, full length, on transfected cells (human). Put plainly: Fc fusion binding to transfected cells, 125I anti-human Fc.

Results are given in words; binding and its absence hold for the method and conditions named. Some binding calls cover weakened binding; strength is not graded here.

As for “human CD7-Fc fusion protein (from UniProt P09564 26-180)”, the binding entry in assay [1] and in assay [2] was “binds” in each case.
